Experimental data as given in patent US20240262835A1, “PRMT5 INHIBITING COMPOUNDS AND USES THEREOF” (ANTENGENE DISCOVERY LIMITED, priority 2023, published 2024).

Experiments:
in vitro [1] = conditions: cynomolgus monkey, microsomes
in vitro [2] = conditions: rat, microsomes
in vitro [3] = conditions: human, microsomes
in vitro [4] = conditions: dog, microsomes

CLint scaled at 1 μM (in vitro [1]): 1440 mL/min/kg
microsomal CLint at 1 μM (in vitro [1]): 1070 µL/min/mg
CLint scaled at 1 μM (in vitro [2]): 1830 mL/min/kg
microsomal CLint at 1 μM (in vitro [2]): 1020 µL/min/mg
CLint scaled at 1 μM (in vitro [3]): 246 mL/min/kg
microsomal CLint at 1 μM (in vitro [3]): 273 µL/min/mg
CLint scaled at 1 μM (in vitro [4]): 440 mL/min/kg
microsomal CLint at 1 μM (in vitro [4]): 306 µL/min/mg
SMILES: CCCNCC(O)COc1ccccc1C(=O)CCc1ccccc1 (centres unmarked) [Ref. 6, Propafenone]
